The values below come from paper PMC1561584.

By UniProt entry, the sequences of proteins in these tests, tags left out.
UniProt Q10658: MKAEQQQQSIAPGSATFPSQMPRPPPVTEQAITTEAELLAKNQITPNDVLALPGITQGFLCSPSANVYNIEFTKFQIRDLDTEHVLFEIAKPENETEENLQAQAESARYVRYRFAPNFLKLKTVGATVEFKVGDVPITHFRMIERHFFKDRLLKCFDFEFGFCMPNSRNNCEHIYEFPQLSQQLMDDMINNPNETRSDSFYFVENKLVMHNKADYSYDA

No constants are given. Whether binding was seen depends on the method and setting. Some entries that bind do so weakly or less than the wild type.

In the assay the target is LexA-UNC-119 (C. elegans) (UniProt Q10658). Nature of the assay: two-hybrid; LexA baits and GAD preys in strain L40; ONPG liquid β-galactosidase assays and auxotrophic (-His) growth assays.

B1: GAD-ARL-3 (full length) (protein, UniProt O45379 1-184)
chain: MGLIDVLKSFKSPSGREIRILLLGLDNAGKTTILKQLSSEDVQHVTPTKGFNVKTVAAMGDIRLNVWDIGGQRSIRPYWSNYYENIDTLIFVIDSNDKKRFDEMNIELGELLDEEKLRKVPVLIFANKQDLVTAASSEEITRKLNLDLLRDRTWHIQACSALKNEGINDGITWVASNLKPASKK
As for B1, the binding entry was “binds”.
